Results: publication PMC8106974 (Psychopharmacology, 2020)
Structures can show the parent of a compound that is named as a salt.

System: male Sprague Dawley rats
Test: Whole body plethysmography, minute volume with increasing CO2 exposure
Format: in vivo
Settings: morphine 3.2-32 mg/kg, 0, 4, 6, 8% CO2

CN1CC[C@]23c4c5ccc(O)c4O[C@H]2[C@@H](O)C=C[C@H]3[C@H]1C5 [morphine, Morphine sulfate]
minute volume (MV) relative to saline controls with increasing CO2 exposure: dose-dependent decreases in MV
